Data from paper PMC6345044.

Molecular target: T1, tumor protein D54 (human (endogenous in MCF-7)) (UniProt O43399)
T1 sequence: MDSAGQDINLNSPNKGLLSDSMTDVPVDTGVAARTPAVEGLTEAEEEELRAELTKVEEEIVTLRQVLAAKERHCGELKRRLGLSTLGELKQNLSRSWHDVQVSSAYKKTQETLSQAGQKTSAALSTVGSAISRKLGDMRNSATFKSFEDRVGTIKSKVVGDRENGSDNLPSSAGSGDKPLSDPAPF
Assay: affinity purification with mass spectrometry; TPD54 immunoprecipitated from MCF-7 cells, then mass spectrometry of the co-precipitated proteins

B1: pyruvate dehydrogenase B subunit (protein, UniProt P11177 31-359)
chain: LQVTVRDAINQGMDEELERDEKVFLLGEEVAQYDGAYKVSRGLWKKYGDKRIIDTPISEMGFAGIAVGAAMAGLRPICEFMTFNFSMQAIDQVINSAAKTYYMSGGLQPVPIVFRGPNGASAGVAAQHSQCFAAWYGHCPGLKVVSPWNSEDAKGLIKSAIRDNNPVVVLENELMYGVPFEFPPEAQSKDFLIPIGKAKIERQGTHITVVSHSRPVGHCLEAAAVLSKEGVECEVINMRTIRPMDMETIEASVMKTNHLVTVEGGWPQFGVGAEICARIMEGPAFNFLDAPAVRVTGADVPMPYAKILEDNSIPQVKDIIFAIKKTLNI
For B1, the binding was “binds”.

No constants are given. Whether binding was seen depends on the method and setting. Binding seen in cells or lysates may run through a third protein. Here binding means that the protein was enriched with, or labelled near, the bait; the list need not be complete.
